Results taken from patent publication US20240382521A1, “METHODS OF ENGINEERING IMMUNE CELLS HAVING REDUCED FRATRICIDAL ACTIVITY” (Baylor College of Medicine, priority 2021, published 2024).
Several values for one entry are separate records, joined by “and”; a condition that tells them apart may be missing. Equal entries are not always repeated. For part of these data: For at least one compound, name, drawing or mass did not settle the structure. Some of these results come from one statement about several compounds together.

Columns and labels:
[1] = test system: CD5 CAR T-cells; test: Expansion of CD5 CAR T-cells in the presence of kinase inhibitors; format: cell-based, human; settings: for frequencies of minimally differentiated, naïve-like T-cells (differentiation of CD5 CAR T-cells): inhibitor added on day of viral transduction, replenished every 2-3 days, vs control CD5 CAR T-cells expanded in the absence of inhibitors, FIG. 1A; for viability of CD5 CAR T-cells: ibrutinib 200 nM from initial T-cell priming, dasatinib 50 nM from day of CAR transduction, FIG. 1C; for overall expansion of CD5 CAR T-cells / overall frequency of naïve-like T-cells: ibrutinib 200 nM from priming, dasatinib 50 nM from day of transduction; for overall expansion of CD5 CAR T-cells: FIG. 1D; for overall frequency of naïve-like T-cells: FIG. 1E
From the text: Pazopanib and gefitinib had less impact on the differentiation of CD5 CAR T-cells. […] No such effect was observed upon expansion of control non-transduced T-cells in the presence of the same inhibitors, indicating the effect is CAR-specific.

[2] = patients receiving FDA-approved formulations (SPRYCEL, IMBRUVICA); cited from earlier work

| SMILES | frequencies of minimally differentiated, naïve-like T-cells (differentiation of CD5 CAR T-cells) [1] | peak plasma levels [2] | viability of CD5 CAR T-cells [1] | overall expansion of CD5 CAR T-cells [1] | overall frequency of naïve-like T-cells [1] | CD5 CAR T-cell expansion ([1]; in presence of inhibitor, compared with non-transduced control T-cells, FIG. 1B) |
| --- | --- | --- | --- | --- | --- | --- |
| Cc1ccc(Nc2nccc(N(C)c3ccc4c(C)n(C)nc4c3)n2)cc1S(N)(=O)=O [Pazopanib, pazopanib] | less impact | – | – | – | – | – |
| Cc1nc(Nc2ncc(C(=O)Nc3c(C)cccc3Cl)s2)cc(N2CCN(CCO)CC2)n1 [dasatinib] | higher frequencies | 30-100 ng/ml and 60-200 nM | increased | increased | increased | promoted robust CD5 CAR T-cell expansion |
| C=CC(=O)N1CCC[C@@H](n2nc(-c3ccc(Oc4ccccc4)cc3)c3c(N)ncnc32)C1 [ibrutinib] | higher frequencies | 30-100 ng/ml and 60-200 nM | little effect | little effect | little effect | – |
